Measurements taken from patent US8691945B2, “Antimicrobial peptides” (Singapore Health Services Pte Ltd., priority 2006, dated 2014).
Some results were stated once for a whole list of compounds, not compound by compound. Not every detail of the peptide structures is certain; ends, links or a residue may be inferred. Some ranges recur; such a range may be that of the whole group of compounds. Where no end group is shown, it is not given here. The star is where a group is joined. Acm = CC(=O)NC*

Tested on: E. coli, B. cereus, S. aureus and P. aeruginosa
Format: cell-based
Settings: for most LD50s against pathogens: most of the four pathogens; for LD50s against the four pathogens: all four pathogens
Procedure: The bacteria assayed included Escherichia coli ATCC 25922, Staphylococcus aureus ATCC 25923, Pseudomonas aeruginosa ATCC 27853, Bacillus cereus NCTC 2599. Sterile flat-bottom, 96-well tissue culture plates (92096, TPP) was used for assay. The inner surface of microplate cover was treated with 0.05% Triton X-100 in 20% ethanol to prevent condensation of water droplets. Growth kinetics in 96-well microplates was monitored (as turbidity) with the Tecan Genios Plus microplate reader using software Magellan v5.03 and 620-nm filter. Seed culture was monitored on Pharmacia Biotech Ultrospec 2000 UV/Visible spectrophotometer using 600-nm wavelength. Antibacterial activities of the analogs and wild-type hBD3 were determined for E. coli, B. cereus, S. aureus and P. aeruginosa by measuring bacteria growth in liquid broth in the presence of the serially diluted peptides. The LD50 is the concentration of peptide at which 50% of the viable cells are killed.
The bacteria were grown to mid-logarithmic phase in Mueller-Hinton Broth (MHB) from overnight plate culture. The cell suspension was diluted to OD 0.1 (600 nm, Pharmacia Biotech Ultropec 2000 UV/Visible spectrophotometer) in mixture of 10 mM Pot Phos buffer/MHB (equal volume (PMH). This cell suspension gave a concentration of 10^7 CFU/ml. Colony count was done for confirmation. A 10-fold dilution series of this suspension ranging from 10^7 to 10^1 CFU/ml was made in PMH (in sextuplicate for Staphylococcus aureus ATCC 25923 and Bacillus cereus NCTC 2599; in quadruplicate for Escherichia coli ATCC 25922 and in triplicate for Pseudomonas aeruginosa ATCC 27853). The final volume per well was 200 ul. For negative control well, 200 ul of uninoculated PMH was added.
LD50, LD90, LD99 and LD99.9 of wild-type hBD3 and its linear analogs were determined against two Gram-negative (E. Coli and P. aeruginosa) and two Gram-positive (B. cereus, S. aureus) (Table 3). See also FIGS. 7(A, B, C and D).

Substance | most LD50s against pathogens [µg/mL] | LD50s against the four pathogens
GIINTLQKYYYRVRGGRYAVLSYLPKEEQIGKYSTRGRKYYRRKK [Peptide Y6] | 10 to 20 | –
GIINTLQKYYARVRGGRAAVLSALPKEEQIGKASTRGRKAARRKK [Peptide A6] | 10 to 20 | –
GIINTLQKYYC(Acm)RVRGGRC(Acm)AVLSC(Acm)LPKEEQIGKC(Acm)STRGRKC(Acm)C(Acm)RRKK-OH [C(Acm)6, GIINTLQKYY C(Acm)6RVRGGR C(Acm)6AVLS C(Acm)6LPKEEQIGK C(Acm)6STRGRK C(Acm)6C(Acm)6RRKK] | 10 to 20 | –
GIINTLQKYYSRVRGGRSAVLSSLPKEEQIGKSSTRGRKSSRRKK [Peptide S6] | – | less than 10 μg/ml
GIINTLQKYYFRVRGGRFAVLSFLPKEEQIGKFSTRGRKFFRRKK [Peptide F6] | – | less than 10 μg/ml
